According to publication PMC10147604:
Numbering of substitutions follows the chain as printed. These are yes or no findings as the source states them, for the method shown. In cells and extracts the contact can be indirect. Some entries that bind do so weakly or less than the wild type. Where a sequence is shown, tags or fusion partners need not be part of it.

Protein sequences, listed by entry. Tags and fused reporters are not part of them. Lines headed by an entry give the natural chain unless they say otherwise; changes in a name come on top.
UniProt Q93009: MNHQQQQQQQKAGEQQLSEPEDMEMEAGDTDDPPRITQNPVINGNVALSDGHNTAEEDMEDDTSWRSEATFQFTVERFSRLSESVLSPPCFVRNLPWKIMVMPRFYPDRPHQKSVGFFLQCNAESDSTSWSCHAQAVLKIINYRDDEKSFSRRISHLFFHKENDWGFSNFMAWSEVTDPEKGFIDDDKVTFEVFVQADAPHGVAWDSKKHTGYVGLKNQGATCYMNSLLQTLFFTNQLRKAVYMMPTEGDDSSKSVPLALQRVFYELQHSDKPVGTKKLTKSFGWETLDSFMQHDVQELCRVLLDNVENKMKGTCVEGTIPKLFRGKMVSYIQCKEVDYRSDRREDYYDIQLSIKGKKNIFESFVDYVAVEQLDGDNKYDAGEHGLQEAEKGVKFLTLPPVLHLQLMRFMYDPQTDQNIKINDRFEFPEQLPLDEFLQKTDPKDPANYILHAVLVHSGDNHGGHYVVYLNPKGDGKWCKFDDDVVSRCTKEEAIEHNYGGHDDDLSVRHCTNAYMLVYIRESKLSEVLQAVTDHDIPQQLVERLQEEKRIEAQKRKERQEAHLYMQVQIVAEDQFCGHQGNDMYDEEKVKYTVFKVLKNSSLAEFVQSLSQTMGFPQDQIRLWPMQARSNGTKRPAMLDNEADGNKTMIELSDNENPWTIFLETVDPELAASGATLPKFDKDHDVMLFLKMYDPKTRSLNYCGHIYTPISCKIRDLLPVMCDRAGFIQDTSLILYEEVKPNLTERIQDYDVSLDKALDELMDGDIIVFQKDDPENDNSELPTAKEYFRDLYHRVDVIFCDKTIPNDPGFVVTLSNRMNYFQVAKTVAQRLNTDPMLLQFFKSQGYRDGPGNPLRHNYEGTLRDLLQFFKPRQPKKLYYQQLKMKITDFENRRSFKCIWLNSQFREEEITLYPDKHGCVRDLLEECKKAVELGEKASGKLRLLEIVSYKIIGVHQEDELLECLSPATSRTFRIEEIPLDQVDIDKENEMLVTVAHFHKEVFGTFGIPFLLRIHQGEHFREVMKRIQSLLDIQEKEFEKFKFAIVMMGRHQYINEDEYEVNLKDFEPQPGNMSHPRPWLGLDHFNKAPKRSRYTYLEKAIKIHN

What was measured:
HA-NGN3^6SA = target: T1, HA-NGN3^6SA (UniProt P70661); assay: co-IP; HA-NGN3 (wildtype or mutant) precipitated with anti-HA magnetic beads from HEK293A lysates, overnight at 4 °C; cells treated with 1 µM MG132 for 6 h; NP-40 buffer; USP7 detected by immunoblot
T1 sequence: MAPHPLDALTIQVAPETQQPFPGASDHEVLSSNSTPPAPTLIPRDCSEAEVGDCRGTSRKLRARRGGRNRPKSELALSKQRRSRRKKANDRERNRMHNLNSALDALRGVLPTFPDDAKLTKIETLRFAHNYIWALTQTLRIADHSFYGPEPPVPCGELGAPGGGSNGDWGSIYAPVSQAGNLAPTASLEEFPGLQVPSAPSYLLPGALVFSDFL

[1] = target: T2, N-terminally HA-tagged NGN3 (HA-NGN3^WT) (UniProt P70661); assay: as above
T2 sequence: T1 sequence with A14S, A38S, A160S, A174S, A183S, A199S

| binding (HA-NGN3^6SA) | binding [1] | Substance |
| --- | --- | --- |
| binds | binds | Flag-tagged wild-type USP7 (Flag-USP7^WT) (from UniProt Q93009 1-1102) (enzyme) |
| – | binds | endogenous USP7 (from UniProt Q93009 1-1102) (enzyme) |
| – | binds | catalytically inactive USP7 (Flag-USP7^C223A) (from UniProt Q93009 1-1102) (enzyme) |
